No constants are given. Whether binding was seen depends on the method and setting. Binding seen in cells or lysates may run through a third protein. Some binding calls cover weakened binding; strength is not graded here. For some of these results: Sequences can lack the tags named with a protein.
B1: HA-tagged PRTN3 (Proteinase 3), full length (enzyme, UniProt P24158 28-248)
chain: IVGGHEAQPHSRPYMASLQMRGNPGSHFCGGTLIHPSFVLTAAHCLRDIPQRLVNVVLGAHNVRTQEPTQQHFSVAQVFLNNYDAENKLNDVLLIQLSSPANLSASVATVQLPQQDQPVPHGTQCLAMGWGRVGAHDPPAQVLQELNVTVVTFFCRPHNICTFVPRRKAGICFGDSGGPLICDGIIQGIDSFVIWGCATRLFPDFFTRVALYVDWIRSTLR
B2: PRTN3, endogenous in human primary CD34+ cells (enzyme, UniProt P24158 28-248)
chain: B1 chain

Sequences of proteins named here, by UniProt entry; tags and fusion partners are left off.
UniProt P42224: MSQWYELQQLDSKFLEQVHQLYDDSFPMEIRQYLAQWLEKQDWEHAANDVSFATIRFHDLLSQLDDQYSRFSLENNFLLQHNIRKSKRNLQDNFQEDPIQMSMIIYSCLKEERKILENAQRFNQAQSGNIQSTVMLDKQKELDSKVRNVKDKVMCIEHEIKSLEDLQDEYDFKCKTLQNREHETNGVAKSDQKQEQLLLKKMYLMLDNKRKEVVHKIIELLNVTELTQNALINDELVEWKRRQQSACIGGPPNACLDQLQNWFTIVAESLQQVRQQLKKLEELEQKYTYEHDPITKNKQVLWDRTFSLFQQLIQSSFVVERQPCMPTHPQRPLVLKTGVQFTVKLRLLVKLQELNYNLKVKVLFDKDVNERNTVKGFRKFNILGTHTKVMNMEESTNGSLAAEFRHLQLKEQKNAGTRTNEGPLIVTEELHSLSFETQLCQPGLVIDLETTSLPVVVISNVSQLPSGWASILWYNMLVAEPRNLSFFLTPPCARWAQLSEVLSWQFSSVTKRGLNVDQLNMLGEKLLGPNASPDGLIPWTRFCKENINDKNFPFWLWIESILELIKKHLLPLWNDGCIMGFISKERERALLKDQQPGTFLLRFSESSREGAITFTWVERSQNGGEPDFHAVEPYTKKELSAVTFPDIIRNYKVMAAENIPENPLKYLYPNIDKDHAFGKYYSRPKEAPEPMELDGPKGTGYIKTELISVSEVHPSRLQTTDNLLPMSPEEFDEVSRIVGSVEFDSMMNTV
UniProt P52630: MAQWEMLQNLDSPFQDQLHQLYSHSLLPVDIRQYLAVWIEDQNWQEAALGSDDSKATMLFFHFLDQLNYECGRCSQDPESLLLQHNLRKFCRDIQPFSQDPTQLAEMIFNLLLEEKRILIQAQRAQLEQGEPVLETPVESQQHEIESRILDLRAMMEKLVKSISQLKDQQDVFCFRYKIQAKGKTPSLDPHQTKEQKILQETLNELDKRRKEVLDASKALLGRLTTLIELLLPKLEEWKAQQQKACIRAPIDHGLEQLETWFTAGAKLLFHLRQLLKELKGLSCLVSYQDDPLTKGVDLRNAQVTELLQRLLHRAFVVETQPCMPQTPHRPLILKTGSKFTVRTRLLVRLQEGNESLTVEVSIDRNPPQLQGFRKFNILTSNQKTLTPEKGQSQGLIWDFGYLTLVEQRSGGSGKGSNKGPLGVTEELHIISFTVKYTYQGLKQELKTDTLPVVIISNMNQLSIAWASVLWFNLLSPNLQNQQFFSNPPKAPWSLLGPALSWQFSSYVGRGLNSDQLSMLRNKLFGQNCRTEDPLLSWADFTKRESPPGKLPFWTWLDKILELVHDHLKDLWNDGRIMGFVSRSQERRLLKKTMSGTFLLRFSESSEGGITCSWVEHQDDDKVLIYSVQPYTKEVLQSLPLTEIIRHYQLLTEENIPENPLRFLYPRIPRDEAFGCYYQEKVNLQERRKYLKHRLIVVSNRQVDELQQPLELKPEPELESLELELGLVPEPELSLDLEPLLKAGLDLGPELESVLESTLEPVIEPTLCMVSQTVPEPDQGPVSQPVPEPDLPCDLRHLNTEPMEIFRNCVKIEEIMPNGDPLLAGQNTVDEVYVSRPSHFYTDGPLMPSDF
UniProt P40763: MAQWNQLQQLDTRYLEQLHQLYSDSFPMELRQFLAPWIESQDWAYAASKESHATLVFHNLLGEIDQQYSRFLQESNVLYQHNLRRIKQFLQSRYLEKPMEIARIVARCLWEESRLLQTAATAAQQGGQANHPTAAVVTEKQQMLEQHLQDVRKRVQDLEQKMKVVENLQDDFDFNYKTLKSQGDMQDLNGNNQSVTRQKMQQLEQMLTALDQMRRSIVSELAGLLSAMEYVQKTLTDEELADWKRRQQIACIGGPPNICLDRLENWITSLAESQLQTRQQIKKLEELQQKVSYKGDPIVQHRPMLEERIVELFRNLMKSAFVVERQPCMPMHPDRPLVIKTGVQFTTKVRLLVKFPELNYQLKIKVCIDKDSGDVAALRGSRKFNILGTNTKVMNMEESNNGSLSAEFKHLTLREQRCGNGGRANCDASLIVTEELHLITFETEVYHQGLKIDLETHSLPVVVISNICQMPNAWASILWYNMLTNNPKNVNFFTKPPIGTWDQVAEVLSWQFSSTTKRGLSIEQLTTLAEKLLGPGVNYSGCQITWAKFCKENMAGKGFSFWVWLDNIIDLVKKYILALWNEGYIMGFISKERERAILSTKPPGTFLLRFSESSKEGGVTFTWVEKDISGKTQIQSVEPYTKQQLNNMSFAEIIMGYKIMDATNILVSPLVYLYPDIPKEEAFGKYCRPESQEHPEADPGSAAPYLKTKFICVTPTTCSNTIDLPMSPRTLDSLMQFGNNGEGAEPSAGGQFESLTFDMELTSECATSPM

Legend:
[1] = target: STAT1, endogenous in HEK293T cells (human (endogenous in HEK293T)) (UniProt P42224); test: co-IP; HEK293T cells overexpressing HA-PRTN3; lysates precipitated with anti-STAT1, anti-STAT2 and anti-STAT5 antibodies; immunoblot
[2] = target: STAT2, endogenous in HEK293T cells (human (endogenous in HEK293T)) (UniProt P52630); test: as above
[3] = target: Flag-tagged STAT3 (1-770) (human) (UniProt P40763); test: co-IP; HEK293T cells co-transfected with Flag-STAT3 and HA-PRTN3; lysates precipitated with anti-Flag or anti-HA overnight at 4 °C, protein A/G agarose; immunoblot
[4] = target: STAT3, endogenous in human primary CD34+ cells (human (endogenous in primary CD34+ cells)) (UniProt P40763); test: co-IP; lysates of human primary CD34+ cells from cord blood, endogenous proteins; anti-STAT3 or anti-PRTN3; immunoblot

Binder	binding [1]	binding [2]	binding [3]	binding [4]
B1	no binding	no binding	binds	
B2				binds

Source: paper PMC11165011
